Laboratory results from article PMC10000386.
No constants are given. Whether binding was seen depends on the method and setting. In cells and extracts the contact can be indirect. Binding calls can cover weak binding; strength is not graded here.

Amino acid sequences for entries named in this document (tags omitted). A change or cut given only in a name is not applied to a line headed by its entry.
UniProt Q07812: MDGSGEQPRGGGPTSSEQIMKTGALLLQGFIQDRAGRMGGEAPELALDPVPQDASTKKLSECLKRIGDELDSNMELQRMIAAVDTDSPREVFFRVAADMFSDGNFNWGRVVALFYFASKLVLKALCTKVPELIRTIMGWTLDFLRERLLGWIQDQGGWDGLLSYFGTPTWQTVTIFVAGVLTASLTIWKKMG

Target: Bax ΔBH3 (human) (UniProt Q07812)
Test: split reporter; BiFC: VN- and VC-Venus fragment fusions (N-terminal) co-transfected in HeLa cells with an mRFP vector, 30 µM Z-VAD-fmk, 37 °C, 24 h; Venus/mRFP mean fluorescence ratio of mRFP-positive cells by flow cytometry; in some experiments ABT-199, A-1155463 or S63845 added 1 h after transfection (reduced the complexes of Bcl-2, Bcl-XL or Mcl-1 with Bim, Puma and Noxa)

binding: binds
B1: Noxa (protein, UniProt Q13794 1-54)
chain: MPGKKARKNAQPSPARAPAELEVECATQLRRFGDKLNFRQKLLNLISKLFCSGT
